Experiment: soluble on expression in E. coli; label from the status in PepcDB or PDB records
For “AAGLPQFGSASALSTSPLASVALSAAAAAAAGKQIEGPEGCNLFIYHLPQEFTDTDLASTFLPFGNVISAKVFIDKQTSLSKCFGFVSFDNPDSAQVAIKAMNGFQVGTKRLKVQLKK”, the “soluble on expression in E. coli” value was “soluble”. In the case of “DFSIVGYSQDDLTSTERLIQLFNSWMLNHNKFYENVDEKLYRFEIFKDNLNYIDETNKKNNSYWLGLNEFADLSNDEFNEKYVGSLIDATIEQSYDEEFINEDIVNLPENVDWRKKGAVTPVRHQGSCGSCWAFSAVATVEGINKIRTGKLVELSEQELVDCERRSHGCKGGYPPYALEYVAKNGIHLRSKYPYKAKQGTCRAKQVGGPIVKTSGVGRVQPNNEGNLLNAIAKQPVSVVVESKGRPFQLYKGGIFEGPCGTKVDGAVTAVGYGKSGGKGYILIKNSWGTAWGEKGYIRIKRAPGNSPGVCGLYKSSYYPTKN”, the “soluble on expression in E. coli” value is reported as “soluble”. In the case of “GPGSMSAVESGSKVLRMKESDAQKLLAMRCHIGTRNQSSAMKKYIYGRTAEGSHIIDVHMMWEKLILAARVIAAVENPKDVCVCSSRLYGTRAIYKFSQHVGTSFHGGRFIPGTFTNQIQKKFVQPRVLVVTDPRTDHQAIREASLVNIPVIALCDTDAPLEYVDIAIPCNNRGIKSIGMMYWLLAREVLRLRGTIVRSVPWEEKVDLFFYRDPNEAAEEKAAAAAAAPAAEAEEGFGWVERNDDNAWEA”, the “soluble on expression in E. coli” value is reported as “soluble”. For “LRLGDRVLVGGTKTGVVRYVGETDFAKGEWCGVELDEPLGKNDGAVAGTRYFQCPPKFGLFAPIHKVIRIG”, the “soluble on expression in E. coli” value was “soluble”. In the case of “MAETLPGSGDSGPGTASLGPGVAETGTRRLSELRVIDLRAELKKRNLDTGGNKSVLMERLKKAVKEEGQDPDEIGIELEATSKKSAKRCVKGLKMEEEGTEDNGLEDDSRDGQEDMEASLENLQNMGMMDMSVLDETEVANSSAPDFGEDGTDGLLDSFCDSKEYVAAQLRQLPAQPPEHAVDGEGFKNTLETSSLNFKVTPDIEESLLEPENEKILDILGETCKSEPVKEESSELEQPFAQDTSSVGPDRKLAEEEDLFDSAHPEEGDLDLASESTAHAQSSKADSLLAVVKREPAEQPGDGERTDCEPVGLEPAVEQSSAASELAEASSEELAEAPTEAPSPEARDSKEDGRKFDFDACNEVPPAPKESSTSEGADQKMSSFKEEKDIKPIIKDEKGRVGSGSGRNLWVSGLSSTTRATDLKNLFSKYGKVVGAKVVTNARSPGARCYGFVTMSTSDEATKCISHLHRTELHGRMISVEKAKNEPAGKKLSDRKECEVKKEKLSSVDRHHSVEIKIEKTVIKKEEM”, the “soluble on expression in E. coli” value is reported as “not soluble”. In the case of “MAFISSGYNPEKPMANRITDIGPRKFDEFFPPVIAKNFGSWLYHEILEPGVLMHVAESGDKVYTVRVGAARLMSITHIREMCDIADKYCGGHLRFTTRNNVEFMVADEASLKALKEDLASRKFDGGSLKFPIGGTGAGVSNIVHTQGWVHCHTPATDASGPVKAIMDEVFEDFQSMRLPAPVRISLACCINMCGAVHCSDIGVVGIHRKPPMIDHEWTDQLCEIPLAVASCPTAAVRPTKLEIGDKKVNTIAIKNERCMYCGNCYTMCPALPISDGEGDGVVIMVGGKVSNRISMPKFSKVVVAYIPNEPPRWPSLTKTIKHIIEVYSANAYKYERLGEWAERIGWERFFSLTGLEFSHHLIDDFRDPAYYTWRQSTQFKFLEHHHHHH”, the “soluble on expression in E. coli” value is reported as “not soluble”. With “MDDNTATLTAIHQQQQSHNRFSNPLVCVGQLDHHSLLPEHSISSSLAPLTHNPYAFNYSIPLPPTDITTKLPKLELLSLDVKQEQDDNHLDTSSPTDSTGNGSTNGGKIQKPRRQRTHFTSHQLTELENWFSRNRYPDMACREEIAVWISLTEPRVRVWFKNRRAKWRKRERNYVIDNGQGTTKVTAQSLDPLGSLQNTFPQTLLQSSSSQLDDSAVTSSSFYGYGGAWQQNPYYSRNNQTTFNWQIKPQFQTIPMSPTTATSRFSTAANLAPLPTAQAAFSTSATSSNDKLKLMDGLSNSLSSSLGQPYQPCQYSGPL” the “soluble on expression in E. coli” value was “not soluble”. In the case of “MDKISNIYNFDDPPPDKLSLELFIIEKKIGKGQFSEVFRAQCTWVDLHVALKKIQVFEMVDQKARQDCLKEIDLLKQLNHVNVIRYYASFIDNNQLNIVLELAEAGDMSRMIKHFKKGGRLIPEKTIWKYFVQLARALAHMHSKRIMHRDIKPANVFITGNGIVKLGDLGLGRFFSSKTTAAHSLVGTPYYMSPERIQESGYNFKSDLWSTGCLLYEMAALQSPFYGDKMNLYSLCKKIENCEYPPLPADIYSTQLRDLVSRCILPEASKRPETSEVLQVAEHMNNYFSPSGDQSTTPSTQF”, the “soluble on expression in E. coli” value is reported as “not soluble”. With “MDRNGMSDPYVKVYVLPERKQKFETRIIRNTLNPTYNETFQFSIPFNELHSKTLMLVVYDYDRLSKDDKMGQLSVPLESIDFGITTDIERPLQKPEKDDEKECRLGDICFSTRYRPATGTVTLTIMEARNLKKMDVGGSSDPYVKIYLHHGRKLLSKKKTSRKYKTLNPYYNESFQFKIEPHMIEKVHLIVSVWDYDKMSKNDFIGEVTLGSKHLNLPQITHACSEQWAEMMTSRRPVVQWHTLQERMEKEKKKDDD” the “soluble on expression in E. coli” value was “not soluble”. For “MEIHPGATIGRRFFIDHGMGIVIGETAEIGDDVTLYQGVTLGGTSWNKGKRHPTLENGVVVGAGAKVLGPFTVGAGAKIGSNAVVTKAVPAGATAVGIPGRIIVKSEDTEVEAKRKAMAEKIGFDAYGVSGDMPDPVARLEHHHHHH”, the “soluble on expression in E. coli” value was “not soluble”. With “MGLLTFRDVAIEFSREEWEHLDSDQKLLYGDVMLENYGNLVSLGLAVSKPDLITFLEQRKEPWNVKSAETVAIQPDIFSHDTQGLLRKKLIEASFQKVILDGYGSCGPQNLNLRKEWESEGKIILW” the “soluble on expression in E. coli” value was “not soluble”. With “MGSDKIHHHHHHLVSLEQEVQEKYSQIQNQLQRRADLIPNLVETVKGYAAHEKEILEEIANARAKLIGAKTPQESAQADAELSSALSRLLAIAENYPNLKADANFRQLMDELAGTENRIAVARRDYNEAVKKYNTAIKKFPGVIFAKMFGFEEKQYFEAKPGAEEVPEVKF” the “soluble on expression in E. coli” value was “soluble”. For “MGSDKIHHHHHHMSVNGQSSAASQASEQREPNAPVEHSGIYTGQVRHRRFGEIPHAFGYRLYMMGLDLDELSAVTSRSWLFGQRWFNPIRFNEKDYLKNEPGSLKQRIAQKVAALGGSWQTENRVVMLAQCRCLGVYFSPINFYFCYDAQQVCRYMLAEVSNTPWNQRHYYLLSLEGEMKLKKAFHVSPFMAMEMTYHWRVSPPAAKALVHIENHQEAKVFDATLALDRQGITPANLLNTWVRIPAMTVKMLLGIYWQALKLFLKRVPFIAHPDADSAS”, the “soluble on expression in E. coli” value was “not soluble”. In the case of “MISVMQQMMNNSNMPPPFVKSSDSHETHDESPTSPFIKRSDSPATTSSAAAAAMQHNFWSTRAAQLQQSVSGSSGVSSGSSSSASNNLSRTQADNHSERGSDTASSPQVAPLPTSSGMSMPAAAAAGMYPFNAGRFPTEFNMMVNQSMYNDFYSNSLAASSWPYSYPQQYPFANYSMPSLDGNLNDGGQLEWTSSSHAMRKKRKPYTKAQTLELEKEFLYNTYVSKQKRWELAKYLHLTERQVKIWFQNRRMKDKKQKQRTSGDPTGMLMPPGLD”, the “soluble on expression in E. coli” value is reported as “not soluble”. In the case of “MKDSLVLLGRVPAHPDSRCWFLAWNPAGTLLASCGGDRRIRIWGTEGDSWICKSVLSEGHQRTVRKVAWSPCGNYLASASFDATTCIWKKNQDDFECVTTLEGHENEVKSVAWAPSGNLLATCSRDKSVWVWEVDEEDEYECVSVLNSHTQDVKHVVWHPSQELLASASYDDTVKLYREEEDDWVCCATLEGHESTVWSLAFDPSGQRLASCSDDRTVRIWRQYLPGNEQGVACSGSDPSWKCICTLSGFHSRTIYDIAWCQLTGALATACGDDAIRVFQEDPNSDPQQPTFSLTAHLHQAHSQDVNCVAWNPKEPGLLASCSDDGEVAFWKYQRPEGLHHHHHH”, the “soluble on expression in E. coli” value is reported as “soluble”. With “MKEFKVTTGPLPGSEKIYVEGERFPFLRVPMRRIRMSDTILENGEREKNEDVVVYDTSGPYTDTSYEVNLHRGVPKIREQWIEDRGDTVRLEGLSSEYGRIRQSDASLEKLRYEHVCTRPRAAKDGCATQLYYARQGIVTPEMEFVAIRENQLIDQVRTRYRAEEGEPLGAVIPRKITPEFVRDEIAAGRAILPANINHPESEPMIIGRNFLVKINANIGNSPISSTIEEEVEKAVWAIRWGADTVMDLSTGDHIHETREWIIRNSPVPIGTVPLYQTLEKVQGDVTKLNWEIFRDTLIEQAEQGVDYFTIHAGLRWHHVPLTLRRLTGIVSRGGSIIANWCTTHKRESFIYEHFEEICQILARYDVAISLGDGLRPGCIHDANDAAQIAELKTLGELTEIAWKYNVQTIIEGPGHVPMHKIRENMEIQLEACHGAPFYTLGPLVSDVASGYDHITSAIGAAQIGWFGTAMLCYVTQKEHLGLPNREDVREGVVTYRLAAHAADLAKGHPTAYWRDYMMSKARFEFRWKDQFHLSLDPEKAIQFHDATLPDEGHKEAHFCSMCGEHFCSMRANKNFRKLLNEEAVSK” the “soluble on expression in E. coli” value was “not soluble”. For “MLNFQLVLLIGDFNLPHRAANISPKFRKLLVPNKMQHVLCTGNLCSRETFDYLRTLSSDVHIVRGEFDDETLKYPDTKVVTVGQFRIGVCHGHQIIPWGDQRMLELLARQLDVDILVTGNTYECSAVEKNGRFFVDPGSATGSFSVTKTEPTTPSFALLDVQADNVVTYLYRLIDDAVKVDRIIYKKSKTT”, the “soluble on expression in E. coli” value was “not soluble”. With “MPDYRSKTSTQGRNMAGARALWRATGMKDEDFKKPIIAIANSFTQFVPGHVHLKDLGQLVAREIERAGGVAKEFNTIAVDDGIAMGHDGMLYSLPSREIIADAVEYMVNAHCADAIVCISNCDKITPGMLMAALRLNIPVIFVSGGPMEAGKTKLASHGLDLVDAMVIAADSTASDEKVAEYERSACPTCGSCSGMFTANSMNCLTEALGLALPGNGSTLATHSDREQLFLTAGRTIVELCKRYYGENDESVLPRSIANFKAFENAMMLDIAMGGSTNTILHLLAAAQEGEVAFDLRDIDRLSRKVPQLCKVAPNIQKYHMEDVHRAGGIFSILGSLARGGLLHTDLPTVHSRSMEEAIAKWDITQTDDEAVHTFFKAGPAGIPTQTAFSQSTRWETLDDDRENGCIRSFEHAYSQEGGLAVLYGNIALDGCVVKTAGVDESIHVFEGTAKIFESQDSAVRGILADEVKAGDIVIIRYEGPKGGPGMQEMLYPTSYLKSKGLGKACALLTDGRFSGGTSGLSIGHASPEAAAGGAIGLVRDGDKVLIDIPNRSINLLVSDEELAQRRVEQDKKGWKPAEVRPRKVTTALKAYALLATSADKGAVRNKAMLEGL” the “soluble on expression in E. coli” value was “not soluble”. With “MRISLQKCSKTACSVLSKRPILSPKKPKSEGEATSFIDYRRVRCQAGNGGNGMVSFFRGYRKPFGGPDGGDGGHGGHVVFRASRSSKDLSTVHSIVRAQNGEFGRSKSCHGKSADHKEVEVPLGTVFKADGNTIFELNNENDMFIAARGGVGGRGNQFYVSNEVRKPFKAEYGGEGEELIYDVEMRVMATAGLVGFPNAGKSSLLRAISRAKPKVASYPFTTLHPHIGVVFYEDFEQIAVADIPGLIEDSHLNKGLGISFLKHIERCESLWYVLDYSTGSLTDQYKMLRVELEGYQKGLGDRASTIVINKIDLSGKSPEEEAHHLSSLFPNLPVFPVSAQQRIGLEPLLEHLREQYDK” the “soluble on expression in E. coli” value was “not soluble”. In the case of “MSMLRRPLTQLELCEDDIQWLTDQLNKRVLPAVIVPKCEMMDIDEMEPMDQSEPPRGITRRNLRSADRKNRDVPGPSTGECTRTSIAPNRCEMSFTEVQTLTSARTPVAAPTLTLSTPVNPVSSAEMLRVMPPRVGRRPRASRSGDNDSPLLFNAYDTPQQGINDESPTPSDSPESPNAHLYGATPGNPTSTSGGPSSNTRSHRH”, the “soluble on expression in E. coli” value is reported as “not soluble”. In the case of “MTEYDKFAEQLRHPDNPIVFLEVTAGGAPIGTIVIELFADVTPRTAENFRQFCTGEYKKDGVPNGYKNCTFHRVIKDFMIQGGDFCNGDGTGLMSIYGSKFRDENFELKHIGPGMLSMANAGSDTNGCQFFITCAKTDFLDNKHVVFGRVLDGMLTVRKIENVPTGANNKPKLPIVVVQCGQL”, the “soluble on expression in E. coli” value is reported as “not soluble”.

— the DeepSol protein solubility set
